This is an account of results in PMC5582858, “The yeast kinesin-5 Cin8 interacts with the microtubule in a noncanonical manner” (The Journal of Biological Chemistry, 2017).

No constants are given. Whether binding was seen depends on the method and setting. Binding calls can cover weak binding; strength is not graded here. Sequences can lack the tags named with a protein.

For assay [1], the target named is Paclitaxel-stabilized microtubules (bovine brain αβ-tubulin) (bovine). In words: co-sedimentation; all Cin8 constructs with paclitaxel-stabilised microtubules, no added nucleotide (supplemental Fig. S5); ionic strength for these constructs not given; both purified.
Assay [2] shares this target. Kind of assay: co-sedimentation; competition: increasing Eg5 added to Cin8·microtubule at 4:1, 60 min at 298 K before centrifugation; both purified.
The target is the same in assay [3]. In words: co-sedimentation; 0.25–4 μM Cin8-trx at fixed 0.25 μM microtubules, 20 μM paclitaxel, no added nucleotide, low and high ionic strength; both purified.
Assay [4] has the same target. Kind of assay: co-sedimentation; competition: 0–12 μM Eg5 added to 2 μM Cin8-trx and 2 μM microtubules (1:1), 60 min at 298 K before centrifugation, low ionic strength; both purified.
Assay [5] shares this target. In words: co-sedimentation; 3 μM Cin8, 1 μM microtubules, no added nucleotide or 1 mM ATP, ADP or AMPPNP, low and high ionic strength; SDS-PAGE of supernatant and pellet; both purified.
Assay [6] shares this target. In words: stopped-flow light scattering; 0.5 or 2.5 μM kinesin rapidly mixed with 0.5 μM microtubules (1:1 or 5:1), low ionic strength, 298 K, 340 nm at 90°; both purified.
For assay [7] the target is unchanged. In words: cryo-electron microscopy (micrographs); Cin8-His with microtubules, apyrase added after complex formation (no-nucleotide state), low ionic strength, Cin8 molar ratios down to 0.5×; both purified.
Assay [8] shares this target. Kind of assay: cryo-EM structure; Cin8-His in the ADP·AlFx state at ∼0.9× molar ratio with 2 μM paclitaxel microtubules, SB buffer diluted in water; helical reconstruction of 13-protofilament microtubules, ∼7 Å; both purified.

B1: Cin8-trxΔR (like Cin8-trx, without the Arg9 tag) (domain or fragment, UniProt P27895 70-535)
chain: ISINTTGDTGITAQMNAKRYTVDKVFGPGASQDLIFDEVAGPLFQDFIKGYNCTVLVYGMTSTGKTYTMTGDEKLYNGELSDAAGIIPRVLLKLFDTLELQQNDYVVKCSFIELYNEELKDLLDSNSNGSSNTGFDGQFMKKLRIFDSSTANNTTSNSASSSRSNSRNSSPRSLNDLTPKAALLRKRLRTKSLPNTIKQQYQQQQAVNSRNNSSSNSGSTTNNASSNTNTNNGQRSSMAPNDQTNGIYIQNLQEFHITNAMEGLNLLQKGLKHRQVASTKMNDFSSRSHTIFTITLYKKHQDELFRISKMNLVDLAGSENINRSGALNQRAKEAGSINQSLLTLGRVINALVDKSGHIPFRESKLTRLLQDSLGGNTKTALIATISPAKVTSEETCSTLEYASKAKNIKNKPQLGSFIMKDILVKNITMELAKIKSDLLSTKSKEGIYMSQDHYKNLNSDLESYKN
Take B1: the binding result in assay [1] is reported as “binds”.

B2: Cin8-trx (Cin8 motor domain, residues 70–535, fused to N-terminal thioredoxin (TrxA), His6, TEV cleavage and Arg9 tags) (domain or fragment, UniProt P27895 70-535)
chain: ISINTTGDTGITAQMNAKRYTVDKVFGPGASQDLIFDEVAGPLFQDFIKGYNCTVLVYGMTSTGKTYTMTGDEKLYNGELSDAAGIIPRVLLKLFDTLELQQNDYVVKCSFIELYNEELKDLLDSNSNGSSNTGFDGQFMKKLRIFDSSTANNTTSNSASSSRSNSRNSSPRSLNDLTPKAALLRKRLRTKSLPNTIKQQYQQQQAVNSRNNSSSNSGSTTNNASSNTNTNNGQRSSMAPNDQTNGIYIQNLQEFHITNAMEGLNLLQKGLKHRQVASTKMNDFSSRSHTIFTITLYKKHQDELFRISKMNLVDLAGSENINRSGALNQRAKEAGSINQSLLTLGRVINALVDKSGHIPFRESKLTRLLQDSLGGNTKTALIATISPAKVTSEETCSTLEYASKAKNIKNKPQLGSFIMKDILVKNITMELAKIKSDLLSTKSKEGIYMSQDHYKNLNSDLESYKN
Turning to B2, the binding result in assay [2], in assay [3], in assay [4] and in assay [5] was “binds” each time.

B3: Cin8-tagless (Cin8 motor domain after removal of the purification tags with TEV protease) (domain or fragment, UniProt P27895 70-535)
chain: ISINTTGDTGITAQMNAKRYTVDKVFGPGASQDLIFDEVAGPLFQDFIKGYNCTVLVYGMTSTGKTYTMTGDEKLYNGELSDAAGIIPRVLLKLFDTLELQQNDYVVKCSFIELYNEELKDLLDSNSNGSSNTGFDGQFMKKLRIFDSSTANNTTSNSASSSRSNSRNSSPRSLNDLTPKAALLRKRLRTKSLPNTIKQQYQQQQAVNSRNNSSSNSGSTTNNASSNTNTNNGQRSSMAPNDQTNGIYIQNLQEFHITNAMEGLNLLQKGLKHRQVASTKMNDFSSRSHTIFTITLYKKHQDELFRISKMNLVDLAGSENINRSGALNQRAKEAGSINQSLLTLGRVINALVDKSGHIPFRESKLTRLLQDSLGGNTKTALIATISPAKVTSEETCSTLEYASKAKNIKNKPQLGSFIMKDILVKNITMELAKIKSDLLSTKSKEGIYMSQDHYKNLNSDLESYKN
Turning to B3, the binding result in assay [1] is “binds”.

B4: Cin8-His (S. cerevisiae kinesin-5 Cin8 motor domain, residues 70–535, with N-terminal His6 and TEV cleavage tags) (domain or fragment, UniProt P27895 70-535)
chain: ISINTTGDTGITAQMNAKRYTVDKVFGPGASQDLIFDEVAGPLFQDFIKGYNCTVLVYGMTSTGKTYTMTGDEKLYNGELSDAAGIIPRVLLKLFDTLELQQNDYVVKCSFIELYNEELKDLLDSNSNGSSNTGFDGQFMKKLRIFDSSTANNTTSNSASSSRSNSRNSSPRSLNDLTPKAALLRKRLRTKSLPNTIKQQYQQQQAVNSRNNSSSNSGSTTNNASSNTNTNNGQRSSMAPNDQTNGIYIQNLQEFHITNAMEGLNLLQKGLKHRQVASTKMNDFSSRSHTIFTITLYKKHQDELFRISKMNLVDLAGSENINRSGALNQRAKEAGSINQSLLTLGRVINALVDKSGHIPFRESKLTRLLQDSLGGNTKTALIATISPAKVTSEETCSTLEYASKAKNIKNKPQLGSFIMKDILVKNITMELAKIKSDLLSTKSKEGIYMSQDHYKNLNSDLESYKN
Take B4: the binding result in assay [6], in assay [7] and in assay [8] was “binds” each time.
